For part of these data: At least one compound was matched to its structure with a doubt left. Some of these results come from one statement about several compounds together.
Each molecule was assayed on SOCE in HEK-293 human embryonic kidney cells (assay: SOCE Fura-2 bioassay in HEK293 cells). Conditions: 10 μM; HEK293 (FIG. 8) vs immune cells.
Type: cell-based

Row | Compound | inhibitory effect in immune cells compared with non-immune HEK293 cells
1 | CCCc1cc(O)c2c(c1)OC(C)(C)[C@@H]1CCC(C)=C[C@@H]21 [THCV, trimethyl-3-propyl-6a,7,8,10a-tetrahydro-6H-benzo[c]chromen-1-ol] | selective

What follows are molecules tested on SOCE in THP-1 human monocytes (assay: SOCE Fura-2 bioassay in THP-1 cells). Conditions: 10 μM cannabinoid + 2.2 μM CBGA, FIG. 10Z.

Row | Compound | SOCE inhibition of combination with CBGA
2 | CCCc1cc(O)c(C/C=C(\C)CCC=C(C)C)c(O)c1 [CBGV, (E)-2-(3,7-dimethylocta-2,6-dien-1-yl)-5-propylbenzene-1,3-diol] | greater than 50%
3 | CCCCCc1cc(O)c2c(c1)OC(C)(C)c1ccc(C)cc1-2 [CBN, 6,6,9-trimethyl-3-pentyl-6H-benzo[c]chromen-1-ol] | greater than 50%
4 | CCCCCc1cc(O)c(C/C=C(\C)CCC=C(C)C)c(O)c1 [CBG, (E)-2-(3,7-dimethylocta-2,6-dien-1-yl)-5-penlylbenzene-1,3-diol] | greater than 50%
5 | C=C(C)[C@@H]1CCC(C)=C[C@H]1c1c(O)cc(CCCCC)cc1O [CBD, (1′R,2′R)-5′-methyl-4-penlyl-2′-(prop-1-en-2-yl)-1′,2′,3′,4′-tetrahydro-[1,1′-biphenyl]-2,6-diol] | ≤ 50%
6 | CCCCCc1cc(O)c2c(c1)OC(C)(C)[C@@H]1CC=C(C)C[C@@H]21 [Δ8-THC, (6aR,10aR)-6,6,9-trimethyl-3-pentyl-6a,7,10,10a-tetrahydro-6H-benzo[c]chromen-1-ol] | ≤ 50%

From patent publication US20230091336A1, “CANNABINOID COMPOSITIONS” (priority 2020, published 2023)
